## Library screening results

Sequences of proteins named here, by UniProt entry; tags and fusion partners are left off.
UniProt E9BF75, entry or part of it: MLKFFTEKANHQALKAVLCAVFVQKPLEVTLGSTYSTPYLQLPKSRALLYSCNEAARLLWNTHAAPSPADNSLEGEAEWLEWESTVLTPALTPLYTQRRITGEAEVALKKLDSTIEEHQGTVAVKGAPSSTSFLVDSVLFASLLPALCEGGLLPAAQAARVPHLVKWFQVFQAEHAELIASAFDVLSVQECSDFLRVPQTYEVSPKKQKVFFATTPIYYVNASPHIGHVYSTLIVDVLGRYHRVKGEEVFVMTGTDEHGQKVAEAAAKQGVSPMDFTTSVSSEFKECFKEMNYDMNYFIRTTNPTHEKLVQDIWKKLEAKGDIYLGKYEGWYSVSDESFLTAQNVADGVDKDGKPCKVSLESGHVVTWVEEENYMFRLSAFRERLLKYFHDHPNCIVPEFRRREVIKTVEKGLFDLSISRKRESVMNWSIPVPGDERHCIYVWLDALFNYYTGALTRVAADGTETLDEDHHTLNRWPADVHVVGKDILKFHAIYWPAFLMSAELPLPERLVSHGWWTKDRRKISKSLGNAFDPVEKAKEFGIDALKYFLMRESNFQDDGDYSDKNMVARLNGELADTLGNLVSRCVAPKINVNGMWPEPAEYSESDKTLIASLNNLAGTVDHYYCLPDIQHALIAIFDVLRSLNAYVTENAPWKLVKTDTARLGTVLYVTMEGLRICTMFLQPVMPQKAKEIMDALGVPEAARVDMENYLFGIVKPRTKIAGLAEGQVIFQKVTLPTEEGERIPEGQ

Measurements from “University of Dundee, Small-Polar-MMV Screening Library” (2021), ChEMBL document CHEMBL3988442.

A: 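Assay on Mycobacterium tuberculosis, filed only as a heat shock assay from Cornell; the read-out is not stated. The concentration is filed as 10 mM, unlikely as a test dose, so the dose is not known. Direction is inferred from retests: higher values go with stronger inhibition. Of about 69,000 compounds tested this way, about 930 (1.4%) reached 50% or more in at least one test.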
B: 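Primary screen of methionyl-tRNA synthetase; the read-out is not stated. Target: Methionyl-tRNA synthetase (putative), Leishmania donovani (UniProt E9BF75). The test concentration is not given. Values are per cent inhibition. About 68,000 compounds were tested under these conditions; 0.035% (about 24) showed 50% or more at least once.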
C: 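Whole-cell assay for inhibitors of Mycobacterium tuberculosis growth, labelled Cornell in the record; the read-out is not stated. The concentration is filed as 10 mM, unlikely as a test dose, so the dose is not known. The record gives no direction; compounds strong in two other growth screens of this library score well above the rest, so higher reads as stronger inhibition. Size under these conditions: about 53,000 compounds, about 900 of them at 50% or above in at least one test.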

Results are percentages, as filed.
How 0% and 100% were set is not recorded. Most values in the screen are low, and negative values occur.
Compounds were drawn at random from those tested, without regard to their results.
A dash means the value is not listed here; it may have been measured.

{"smiles": "CC(C)OCc1noc(C2CC=CC2)n1", "A": -9.609, "B": 11.04, "C": -7.412}
{"smiles": "COc1cn(CC(N)=O)c(CSc2nccc(C)n2)cc1=O", "A": -0.8605, "B": 9.859, "C": -12.71}
{"smiles": "CC(C)c1nnc2n1CCN(C(=O)Cc1csc(C(C)(C)C)n1)C2", "A": 15.55, "B": 16.84}
{"smiles": "COCc1cc(CN(C)C(=O)CCC(=O)Nc2cc(C)ccc2F)n[nH]1", "A": 9.91, "B": 7.186, "C": 15.09}
{"smiles": "COC(=O)c1ccn(COc2ccccc2Cl)n1", "A": 5.231, "B": 6.789, "C": -23.65}
{"smiles": "[H][C@]12CN(Cc3ccccc3C)CC[C@@]1(O)CCN(C(=O)C1CCC1)C2", "A": -11.59, "C": -24.23}
{"smiles": "COCCN1C[C@H]2CN(C(=O)c3ccc4c(c3)OCO4)CCN2C1=O", "B": 3.846}
{"smiles": "CN(Cc1nc2ccccc2[nH]1)C(=O)CN(C)c1ccccc1", "A": -177.7, "B": 17.22}
{"smiles": "Cc1ccc(-n2cc(C(=O)N3CCCC(n4cccn4)C3)nn2)cc1", "stereo": "stereo not drawn", "A": -23.49, "B": 20.22}
{"smiles": "CC(C)(C)c1csc(CCNC(=O)[C@H](c2ccccc2)n2cnnn2)n1", "A": 7.446, "B": 9.115, "C": 42.06}
{"smiles": "CN1CCCN(C(=O)NCCOc2ccc3c(c2)OCO3)CC1", "A": 4.938, "B": 21.59}
{"smiles": "COc1cccc(N2CCC(CNCc3cccc(C#N)c3)C2)c1", "stereo": "stereo not drawn", "A": 38.72, "B": 17.78, "C": 63.04}
{"smiles": "Cc1ncccc1Oc1ncnc(N2CCC3(CCCO3)CC2)c1C", "A": -22.24, "B": 16.25, "C": 5.528}
{"smiles": "COCCn1ccc(NCc2cc3cc(F)ccc3o2)n1", "A": -4.332, "B": 20.43, "C": 14.86}
{"smiles": "Cc1cc(CN2CCCC2)cc(Oc2ccc3c(c2)CC(CN)O3)c1", "stereo": "stereo not drawn", "A": 9.688, "B": 10.05, "C": 24.36}
{"smiles": "OCCOCc1nnn2c1CN(c1ncccn1)CCC2", "B": 7.971}
{"smiles": "Cn1nc2c(cc1=O)CN(Cc1nc(-c3cccnc3)no1)CC2", "A": -4.437, "B": 22.83, "C": 8.257}
{"smiles": "O=C(CCNC(=O)c1ccoc1)Nc1ccccc1F", "A": 21.13, "B": 12.71, "C": -13.79}
{"smiles": "Cc1ncsc1CN(C)C(=O)CC1CCOc2ccccc21", "stereo": "stereo not drawn", "A": -26.16, "B": 2.507}
{"smiles": "Cn1nc(Cn2cccn2)c2c1CN(C1CCOCC1)C2.O=C(O)C(F)(F)F", "A": 6.743, "C": -27.07}
{"smiles": "CN(Cc1ccccn1)C(C(=O)O)c1ccc2c(c1)OCO2", "stereo": "stereo not drawn", "A": 1.949, "B": 8.616}
{"smiles": "O=C(NCc1ccncc1)c1nc2c(o1)CN(C(=O)c1cccnc1)C2.O=C(O)C(F)(F)F.O=C(O)C(F)(F)F", "A": -32.51, "C": 25.21}
{"smiles": "CC1(C)COCCN1C(=O)c1ccc(Cn2cncn2)cc1", "A": -7.171, "B": 12.64, "C": -22.85}
{"smiles": "O=C(N1CCOCC1)N1CCc2ncnc(NC3CCC3)c2CC1.O=C(O)C(F)(F)F", "A": -7.488, "C": 12.69}
{"smiles": "Cl.OC(CNCc1ccccc1C(F)(F)F)c1ccccc1", "stereo": "stereo not drawn", "A": -5.167}
{"smiles": "CCn1cc(-c2nn3c(C(F)(F)F)nnc3s2)cn1", "A": -2.353, "B": 12.9, "C": 14.93}
{"smiles": "Cc1ccc2nc(C(=O)N3C[C@@H](C(=O)O)[C@H](c4ccccc4)C3)cn2c1", "A": 1.871, "B": 17.76, "C": 11.02}
{"smiles": "Cc1ccc2cc(CNCCCN3CCOCC3)c(=O)[nH]c2c1C", "A": 10.73, "B": 16.67, "C": 10.7}
{"smiles": "CN(Cc1cccc(C#N)c1)Cc1nc2c(cnn2C)c(=O)[nH]1", "A": -20.46, "B": 16, "C": -12.56}

Repeated from the top, 3 entries:

SMILES,A,B,C
CC(C)OCc1noc(C2CC=CC2)n1,-9.609%,11.04%,-7.412%
COc1cn(CC(N)=O)c(CSc2nccc(C)n2)cc1=O,-0.8605%,9.859%,-12.71%
CC(C)c1nnc2n1CCN(C(=O)Cc1csc(C(C)(C)C)n1)C2,15.55%,16.84%,-